{
  "sequences": {"note": "The chains behind the UniProt entries cited, without tags or fusion partners. Where a name states a change or a piece, a line headed by the entry shows the natural chain unless it says otherwise. Residues count along the entry.", "UniProt Q14494, residues 104-772": "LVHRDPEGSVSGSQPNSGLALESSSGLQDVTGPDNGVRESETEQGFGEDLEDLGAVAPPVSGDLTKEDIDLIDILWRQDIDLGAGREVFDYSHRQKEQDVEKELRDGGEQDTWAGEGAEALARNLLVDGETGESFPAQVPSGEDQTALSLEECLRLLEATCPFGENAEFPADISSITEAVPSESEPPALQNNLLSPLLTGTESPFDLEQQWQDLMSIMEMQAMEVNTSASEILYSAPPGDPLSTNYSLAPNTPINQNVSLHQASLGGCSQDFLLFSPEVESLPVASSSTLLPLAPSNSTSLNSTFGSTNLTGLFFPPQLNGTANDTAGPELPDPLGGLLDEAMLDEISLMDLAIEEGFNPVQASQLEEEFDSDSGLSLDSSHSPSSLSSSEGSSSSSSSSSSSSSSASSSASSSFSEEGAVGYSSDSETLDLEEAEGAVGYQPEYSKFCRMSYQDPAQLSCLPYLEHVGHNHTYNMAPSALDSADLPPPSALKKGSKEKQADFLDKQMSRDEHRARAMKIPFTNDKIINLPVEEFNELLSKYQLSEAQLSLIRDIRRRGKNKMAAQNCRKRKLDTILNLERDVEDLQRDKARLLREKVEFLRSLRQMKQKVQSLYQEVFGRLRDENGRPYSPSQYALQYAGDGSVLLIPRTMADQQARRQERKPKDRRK", "UniProt Q9Y265": "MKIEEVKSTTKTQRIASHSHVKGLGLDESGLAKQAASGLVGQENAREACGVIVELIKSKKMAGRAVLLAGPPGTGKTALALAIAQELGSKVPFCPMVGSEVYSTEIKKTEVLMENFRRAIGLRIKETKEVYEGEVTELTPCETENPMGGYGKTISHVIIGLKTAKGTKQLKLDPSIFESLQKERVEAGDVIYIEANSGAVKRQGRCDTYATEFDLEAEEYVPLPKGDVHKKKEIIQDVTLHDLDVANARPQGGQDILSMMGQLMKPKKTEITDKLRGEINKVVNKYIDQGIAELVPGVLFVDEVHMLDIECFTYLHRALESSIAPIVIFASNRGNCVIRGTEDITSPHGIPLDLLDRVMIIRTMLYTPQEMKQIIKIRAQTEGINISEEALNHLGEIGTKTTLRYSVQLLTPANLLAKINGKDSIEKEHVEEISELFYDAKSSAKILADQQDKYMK"},
  "source": "paper doi:10.1101/443937",
  "biological_target": "Nrf1^3xFLAG (Nuclear factor erythroid derived 2-related factor 1, C-terminally 3xFLAG-tagged) (UniProt Q14494)",
  "experiment": "co-IP",
  "note": "These are yes or no findings as the source states them, for the method shown. Binding seen in cells or lysates may run through a third protein. Some binding calls cover weakened binding; strength is not graded here.",
  "data": [
    {"substance": "RUVBL1/2 (from UniProt Q9Y265 1-456; Q9Y230 1-463) (complex)", "values": [
      {"measurement": "binding", "value": "binds"}
    ]}
  ]
}
